The source of these data is article PMC5351981.

By UniProt entry, the sequences of proteins in these tests, tags left out. Where a name states a change or a piece, a line headed by the entry shows the natural chain unless it says otherwise.
UniProt Q08605: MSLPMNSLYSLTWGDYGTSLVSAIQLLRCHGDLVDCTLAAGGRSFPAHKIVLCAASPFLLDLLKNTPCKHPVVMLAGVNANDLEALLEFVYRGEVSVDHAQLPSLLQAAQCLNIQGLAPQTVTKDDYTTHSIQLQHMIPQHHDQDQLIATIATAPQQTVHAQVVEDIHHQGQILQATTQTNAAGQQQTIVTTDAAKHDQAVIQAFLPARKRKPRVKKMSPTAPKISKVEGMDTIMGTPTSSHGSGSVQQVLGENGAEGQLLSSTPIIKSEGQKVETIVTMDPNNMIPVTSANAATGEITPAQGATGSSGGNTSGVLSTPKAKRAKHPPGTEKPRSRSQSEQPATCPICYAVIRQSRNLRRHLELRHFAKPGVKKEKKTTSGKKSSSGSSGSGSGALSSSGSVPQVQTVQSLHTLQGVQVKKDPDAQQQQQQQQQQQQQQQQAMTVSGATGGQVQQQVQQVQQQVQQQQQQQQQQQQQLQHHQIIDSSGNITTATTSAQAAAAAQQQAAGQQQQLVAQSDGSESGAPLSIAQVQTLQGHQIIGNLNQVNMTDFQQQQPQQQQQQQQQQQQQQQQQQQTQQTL

Results are given in words; binding and its absence hold for the method and conditions named. In cells and extracts the contact can be indirect. These calls come from enrichment with a bait or labelling near it, and not all partners need be listed.

The test has as its target GAGA factor (GAF) (Drosophila melanogaster (endogenous in embryos)) (UniProt Q08605). In words: affinity purification with mass spectrometry; GAF polyclonal antibody coupled to protein A Sepharose; 10 mg nuclear extract of 0-12 h embryos, HEMG-150, 2 h; washed with HEMG-500 plus 0.1% Nonidet P-40; eluted with 0.1 M glycine pH 2.5; triplicate; mock: protein A Sepharose with no antibody.

B1: Bab2/BTB-II (protein, UniProt Q9W0K4 1-1067)
chain: MDMTKQIVDFEIKSELIGEIDQFEASDYTMAPPEEPKMVEESPQLGHLEDQNRKYSPEREVEPTLQDPSEVVDQMQKDTESVGEVKSPEKDVETELVKSKASPMNDQALTPPPRPLTSSEVVGLRDPEHTELRMCLEAKKSRSLPVSPQPQPNLKLAGSALFEFGQRSSPVETKIKTNPETKPPRRKIVPPSGEGQQFCLRWNNYQSNLTNVFDELLQSESFVDVTLSCEGHSIKAHKMVLSACSPYFQALFYDNPCQHPIIIMRDVSWSDLKALVEFMYKGEINVCQDQINPLLKVAETLKIRGLAEVSAGRGEGGASALPMSAFDDEDEEEELASATAILQQDGDADPDEEMKAKRPRLLPEGVLDLNQRQRKRSRDGSYATPSPSLQGGESEISERGSSGTPGQSQSQPLAMTTSTIVRNPFASPNPQTLEGRNSAMNAVANQRKSPAPTATGHSNGNSGAAMHSPPGGVAVQSALPPHMAAIVPPPPSAMHHHAQQLAAQHQLAHSHAMASALAAAAAGAGAAGAGGAGSGSGSGASAPTGGTGVAGSGAGAAVGSHHDDMEIKPEIAEMIREEERAKMIESGGHGGWMGAAAAATGAASVAADSYQYQLQSMWQKCWNTNQQNLVQQLRFRERGPLKSWRPEAMAEAIFSVLKEGLSLSQAARKFDIPYPTFVLYANRVHNMLGPSLDGGADPRPKARGRPQRILLGMWPEELIRSVIKAVVFRDYREIKEDMSAHQYANGQGHGTYIGGGTTTNGYHSAAAAKLAAQNAALAPPDAGSPLSSMTETLRRQILSQQQQHQQHHQQQAHHQQQPSHHQQQSPHAQSMNMYKSPAYLQRSEIEDQVSAAAAVAAAAAKHQQQQGERRGSENLPDLSALGLMGLPGLNVMPSRGSGGGSGGAAPNSAASYARELSRERERDRERERERELSRQYGSQSRGSSSGSGSAKSLTASQRPGAASPYSAAHYAKHQASAYNKRFLESLPAGIDLEAFANGLLQKSVNKSPRFEDFFPGPGQDMSELFANPDASAAAAAAAYAPPGAIRESPLMKIKLEQQHATELPHED
With B1, the binding result was “binds”.

B2: Lola/BTB-IV (protein, UniProt P42283 1-891)
chain: MDDDQQFCLRWNNHQSTLISVFDTLLENETLVDCTLAAEGKFLKAHKVVLSACSPYFATLLQEQYDKHPIFILKDVKYQELRAMMDYMYRGEVNISQDQLAALLKAAESLQIKGLSDNRTGGGVAPKPESSGHHRGGKLSGAYTLEQTKRARLATGGAMDTSGDVSGSREGSSSPSRRRRKVRRRSMENDAHDNSNSSVLQAAASNQSILQQTGAGLAVSALVTTQLSSGPAAGTSSQASSTQQQQPLTSTNVTKKTESAKLTSSTAAPASGASASAAVQQAHLHQQQAQTTSDAINTENVQAQSQGGAQGVQGDDEDIDEGSAVGGPNSATGPNPASASASAVHAGVVVKQLASVVDKSSSNHKHKIKDNSVSSVGSEMVIEPKAEYDDDAHDENVEDLTLDEEDMTMEELDQTAGTSQGGEGSSQTYATWQHDRSQDELGLMAQDAQQRDPQDLSRKENTAPDVASTAEIQRSFQRSILNGKQRDEQKIQLPGSRRKRLSVTEVSDMLFEFYKTKSAKVPKAEQPHRQVSPTSGEILDPSTISAIAVYGTASETASKNLNADEVMRVQNATATRVVGAAAGAAASFHPRPKYTLKTAASSTEHTTAIPTSVLVANSAAALTPKPQAAVIAEALMRNGLHNFQQQLRAQEILRQQTPHRRIKEENDVEIAGGDITPTKILENLLRKQQERDLRHSECENEPGYSTEDDEEGRYHAFDDIHLMEQSGGKFGNNSGMGMFNANAHGGSASSILDAHQAFRNLEFTLSDYGGSSSNGSTTSPNGIGLDGEPVYECRHCGKKYRWKSTLRRHENVECGGKEPSHQCPYCPYKSKQRGNLGVHVRKHHTDLPQLPSKRRSKYSMNRENGMSGSMSDDSQGKLIIDFNGKGELETK
Turning to B2, the binding result is given as “binds”.
